Reference: publication PMC8927971

Legend:
Test in all cases: EMSA
CIZ1 C275 (Mus musculus) = molecular target: T1, CIZ1 C275 (Mus musculus) (UniProt F6ZP34); conditions: 10 mM Tris-HCl pH 7.5, 30 mM NaCl, 2.5 mM MgCl2, 0.2 mM DTT, 0.1% IGEPAL CA-630, 0.1 mg/ml yeast tRNA, 0.4 U RNaseOUT, 1% glycerol, 30 C 20 min, recombinant protein, residues 571-845, label: digoxigenin-11-UTP (1:15 with UTP), probe letters rebuilt from the primers and the genome
T1 sequence (looked up): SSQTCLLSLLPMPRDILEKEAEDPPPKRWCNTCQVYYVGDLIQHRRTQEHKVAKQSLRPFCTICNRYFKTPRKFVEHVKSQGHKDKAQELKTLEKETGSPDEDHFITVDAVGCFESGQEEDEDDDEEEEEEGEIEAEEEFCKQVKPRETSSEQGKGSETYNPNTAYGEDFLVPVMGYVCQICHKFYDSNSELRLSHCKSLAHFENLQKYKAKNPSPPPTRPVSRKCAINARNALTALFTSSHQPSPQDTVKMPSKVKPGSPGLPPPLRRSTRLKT

[1] = molecular target: T2, CIZ1 N571 (GST-N571) (Mus musculus) (UniProt F6ZP34); conditions: 0.3 nM RNA, 10 mM Tris-HCl pH 7.5, 30 mM NaCl, 2.5 mM MgCl2, 0.2 mM DTT, 0.1% IGEPAL CA-630, 0.1 mg/ml yeast tRNA, 0.4 U RNaseOUT, 1% glycerol, 30 C 20 min, recombinant protein, residues 1-571, protein details: GST (N-term), label: digoxigenin-11-UTP (1:15 with UTP), probe letters rebuilt from the primers and the genome
T2 sequence (looked up): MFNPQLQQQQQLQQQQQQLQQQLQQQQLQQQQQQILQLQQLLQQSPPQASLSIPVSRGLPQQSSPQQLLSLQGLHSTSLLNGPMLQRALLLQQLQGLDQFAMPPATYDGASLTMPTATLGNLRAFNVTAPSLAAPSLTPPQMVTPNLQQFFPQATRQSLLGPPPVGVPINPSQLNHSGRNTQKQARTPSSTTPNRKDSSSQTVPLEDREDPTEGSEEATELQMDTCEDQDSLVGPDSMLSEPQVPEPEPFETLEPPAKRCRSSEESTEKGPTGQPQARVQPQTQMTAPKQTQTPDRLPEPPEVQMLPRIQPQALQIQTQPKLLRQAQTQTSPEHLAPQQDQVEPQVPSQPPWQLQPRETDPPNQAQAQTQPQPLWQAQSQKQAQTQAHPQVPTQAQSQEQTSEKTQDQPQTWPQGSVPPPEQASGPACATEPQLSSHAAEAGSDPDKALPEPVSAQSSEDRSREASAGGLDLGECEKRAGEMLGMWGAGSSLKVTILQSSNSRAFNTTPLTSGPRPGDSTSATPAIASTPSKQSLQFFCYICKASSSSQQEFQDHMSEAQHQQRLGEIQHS

CIZ1 C181 (Mus musculus) = molecular target: T3, CIZ1 C181 (Mus musculus) (UniProt F6ZP34); conditions: results similar to C275; 10 mM Tris-HCl pH 7.5, 30 mM NaCl, 2.5 mM MgCl2, 0.2 mM DTT, 0.1% IGEPAL CA-630, 0.1 mg/ml yeast tRNA, 0.4 U RNaseOUT, 1% glycerol; 30 C 20 min; recombinant protein; residues 665-845; label: digoxigenin-11-UTP (1:15 with UTP); probe letters rebuilt from the primers and the genome
T3 sequence (looked up): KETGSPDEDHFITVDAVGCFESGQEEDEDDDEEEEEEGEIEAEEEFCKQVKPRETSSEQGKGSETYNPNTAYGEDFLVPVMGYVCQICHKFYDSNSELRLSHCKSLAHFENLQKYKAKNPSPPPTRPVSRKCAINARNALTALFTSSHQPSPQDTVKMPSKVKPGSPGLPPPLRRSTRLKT

[2] = up to 5 uM protein, 0.3 nM RNA, first evident at 600 nM

Sequence | binding result (CIZ1 C275 (Mus musculus); 6.5 nM RNA, 10 mM EDTA added (enhances binding)) | binding result (CIZ1 C275 (Mus musculus); [2]) | half-maximal binding [1] | binding result [1] | binding result (CIZ1 C181 (Mus musculus)) | binding result ([1]; preferred over antisense)
GGGAGAUUUCUUCCUUGCAGUUGUGUCUAAUUCUUUGUUACAUCUAUUUCUUCCUUGCUUUUGUGUGUCUAUUUCUUCCUUGCAUUGUGUCUAAUUCUUUGGUAUAUAUAUUUCUUCAUUGCUUUGUGUGUCUAUGUCUCCUUGUGUUGUCUAAUUCGUUGUUGCAUCUAUUUCUUCCUUGCUUUGUGUGUCUAUUUCUUCCUUGCUUUGUGUGUCUAUGUCUUCCUUGCUUUGUGUGUCUAUGUCUUCCUUGUUUUGUGUAUCUACUUCUUCCUUGUGUGUCUAAUUCUUUGUUACAUCUAUUUCUUCCUUCCUUUGCAUGUCUCCUUCUUUCCUUUGUGUGUCUUUUCUGUCUGCAGUGUGUCUUACCUAUUCCCAUGUUUCUCCUGCAUGUUCUUUCUUGCAGAGCUUUGAGCUUUGUUUCACUUUCUCUGGUGCCUGUGUGGUCUGCUUUGUCUUCACUAGCUAUGGCUCUCUGU [Xist repeat E proximal] | binds | binds more weakly | 100 nM |  |  | 
GGGAGCACAUAACACACAUGCACACACGCACAUGUACAUACAAAGAAACAUCCAAGAAAGGAUUACUUUAGAAUACAAGAGAGACACAGACUUGUAAAGAGAUGAAAUGCUCAAAGUGAACAGAAAGGAGGAAAGUAGAAGAUAGAAACACAAGCAAACACAAAGCAACAGAAUGAUGCUGAGAUAAGAAAUCCACCAAUAGCAAAGAGACACAAAUACAAAAGAAAACAGAGAAAGUGGCCCAAGAAAGGCAGGGAAGAAAUGUAAACAAGAAUUCACUAAGGAUAGAAGCAGCAGAAAGAAAACUGAAAUGGACUGACAAAGAGAACUUGAACAAAGAACAAGUGGGGUGAGCACAAGAAAAAGAGAGGGAUGCAUGCAACAUGUGACCCAAAGGGGAGUCACGAAAGGCAGGAGUGAAAGAAAAGCUAAGAGAAAUAGCAACCAGAUAGAUAAAACAGAGAGCCAUAGCUAGUG [Xist repeat E distal antisense] |  |  |  | binds more weakly |  | 
GGGAGCACUAGCUAUGGCUCUCUGUUUUAUCUAUCUGGUUGCUAUUUCUCUUAGCUUUUCUUUCACUCCUGCCUUUCGUGACUCCCCUUUGGGUCACAUGUUGCAUGCAUCCCUCUCUUUUUCUUGUGCUCACCCCACUUGUUCUUUGUUCAAGUUCUCUUUGUCAGUCCAUUUCAGUUUUCUUUCUGCUGCUUCUAUCCUUAGUGAAUUCUUGUUUACAUUUCUUCCCUGCCUUUCUUGGGCCACUUUCUCUGUUUUCUUUUGUAUUUGUGUCUCUUUGCUAUUGGUGGAUUUCUUAUCUCAGCAUCAUUCUGUUGCUUUGUGUUUGCUUGUGUUUCUAUCUUCUACUUUCCUCCUUUCUGUUCACUUUGAGCAUUUCAUCUCUUUACAAGUCUGUGUCUCUCUUGUAUUCUAAAGUAAUCCUUUCUUGGAUGUUUCUUUGUAUGUACAUGUGCGUGUGUGCAUGUGUGUUAUGUG [Xist repeat E distal sense] |  |  |  |  | binds more weakly | binds
GGGAGCUUGCUCCAGCCAUGUUUGCUCGUUUCCCGUGGAUGUGCGGUUCUUCCGUGGUUUCUCUCCAUCUAAGGAGCUUUGGGGGAACAUUUUUAGUUCCCCUACCACCAAGCCUUAUGGCUUAUUUAAGAAAACAUAUCAAAAUUCCACGAGAUUUUUGACGUUUUGAUAUGUUCUGGUAAGAUUUUUUUUUUGACAUGUCCUCCAUACUUUUUGAUAUUUGUAAUAUUUUCAGUCAAUUUUUCAUUUUUAAGGAAUAUUUCUUUGUUGUGCCUUUUGGUUGAUACUUGUGUGUGUAUGGUGGACUUACCUUUCUUUCAUUGUUUAUAUAUUCUUGCCCAUCGGGGCCACGGAUACCUGUGUGUCCUCCCCGCCAUUCCAUGCCCAACGGGGUUUUGGAUACUUACCUGCCUUUUCAUUCUUUUUUUUUCUUAUUAUUUUUUUUUCUAAACUUGCCCAUCUGGGCUGUGGAUACCUGCUUUUAUUCUUUUUUUCUUCUCCUUAG [Xist repeat A] |  | binds more weakly | 200 nM |  | binds more weakly | 

A weaker result is weaker than the reference pair of the same experiment. Tags and fusion partners may be left off the protein sequences shown. For part of these data: For at least one entry, the source does not settle the construct or the ends of the probe.
